Values are the deposited “Percent Effect”, in %.
The controls that fix the scale are not given in the record; negative values are as filed.
The compounds are a random part of those screened.

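Assay on Mycobacterium tuberculosis, filed only as a heat shock assay from Cornell; the read-out is not stated. The concentration is filed as 10 mM, unlikely as a test dose, so the dose is not known. Higher reads as stronger inhibition (inferred: compounds with an IC50 in retests scored well above the rest). Size under these conditions: about 69,000 compounds, about 930 of them at 50% or above in at least one test.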

| Compound | percent effect |
|---|---|
| `CCS(=O)(=O)N1CCc2ccc(NC(=O)NCCc3ccccc3)cc21` | 20.21% |
| `[H][C@@]12CCN(c3ccc(C)nn3)C[C@]1([H])[C@H](C(=O)NCCOC)CCO2` | 2.723% |
| `CCOc1cc(C(=O)N2CCCC(c3noc(C)n3)C2)ccc1OC` (centres unmarked) | 5.454% |
| `CC(C)(CN1CCC(Cc2cccc(C(=O)O)c2)C1)N1CCOCC1` (centres unmarked) | -27.34% |
| `Cc1cccc(NC(=O)C2CSc3ncc(C)c(=O)n3C2)n1` (centres unmarked) | -44.64% |
| `CC(C)C1CCCN1C(=O)c1ccc(-n2ncc(C#N)c2N)cc1` (centres unmarked) | 11.86% |
| `Cc1cccc(CNc2cc(C3CCCNC3)ccn2)n1.Cl` (centres unmarked) | -4.657% |
| `O=C(NCCCNC(=O)c1ccc(F)cc1F)c1cccc(O)c1` | 18.04% |
| `[H][C@]1([C@H](O)c2ccc(NC(=O)c3ccco3)cc2)COCC(=O)N1` | -3.225% |
| `CC(C)CN1CC2(CCN(C(=O)C(O)c3cccc(Cl)c3)CC2)CC1=O` (centres unmarked) | -8.043% |
| `O=C(O)C(F)(F)F.O=C(O)C(F)(F)F.[H][C@@]12OCCN(Cc3ccncc3)[C@@]1([H])CC[C@H]2OCC1CCCC1` | 3.983% |
| `COCC(=O)N1CCC2(CC1)COC(COCc1ccccn1)C2.O=C(O)C(F)(F)F` (centres unmarked) | -35.2% |
| `N#CCCCOc1cccnc1NC(=O)CCC1CCCC1` | 4.861% |
| `CCOc1ccc(C(=O)N2CCCC2c2c(C)nn(C)c2OC)cn1` (centres unmarked) | 8.942% |
| `COCCN(Cc1ccccn1)C(=O)CC1OCCc2ccccc21` (centres unmarked) | 4.874% |
| `CCCNC(=O)C(C)Oc1ccc(F)cc1` (centres unmarked) | 19.71% |
| `[H][C@@]12OCCN(c3ncccn3)[C@@]1([H])CC[C@H]2OCCN1CCOCC1` | -6.211% |
| `O=C(CCc1cccnc1)N1CCC2(CCN(CC3CCCC3)C2)C1.O=C(O)C(F)(F)F.O=C(O)C(F)(F)F` (centres unmarked) | -30.74% |
| `N#Cc1ccc(CN2CCN(Cc3ccncc3Cl)CC2=O)cc1` | -34.12% |
| `Cc1cc(=O)n(CC(=O)NCC2CCCO2)c(-c2cccc(Cl)c2)n1` (centres unmarked) | 12.3% |
| `CN(C)CC1(O)CCN(Cc2cnc3c(-c4ccccc4)cnn3c2)C1` (centres unmarked) | -39.58% |
| `Cc1cccc(C2CC(=O)Nc3c2c(=O)[nH]n3C(C)C)c1` (centres unmarked) | -1.872% |
| `CCCN1CCC(c2cc(CCOc3ccc(C(F)(F)F)cc3)[nH]n2)C1` (centres unmarked) | 10.77% |
| `CNC(=O)NC(=O)CN(Cc1ccc(C#N)cc1)Cc1cccc(F)c1` | -16.12% |
| `CC(C)N1CC[C@H](c2nnc(Cc3c[nH]c4ccccc34)o2)C1` | -2.951% |
| `O=C(O)Cc1cn2cc(C(F)(F)F)ccc2n1` | 10.38% |
| `Cc1c[nH]c(C(=O)N2CCCC2c2ccc(C(=O)N3CCSCC3)s2)n1` (centres unmarked) | 3.242% |
| `CCc1ccc(C(=O)O)cc1S(=O)(=O)Nc1ccc(F)c(C#N)c1` | -5.214% |
| `COc1ccc(NCc2ccccc2N2CCN(C(C)=O)CC2)cn1` | 10.94% |
| `Cc1ncc(CN2CCc3c(nc(-c4ccccn4)[nH]c3=O)C2)n1C` | 8.847% |
| `Cc1ccc(S(N)(=O)=O)cc1C(=O)NC1CCCN(C)C1` (centres unmarked) | -5.859% |
| `CN(C)C(=O)NCC(=O)N(C)Cc1cc(-c2ccccc2)no1` | 29.82% |
| `Cc1ccc2cc(CN(C)Cc3ccncn3)c(=O)[nH]c2c1` | -6.711% |
| `N#Cc1c(N)nc2c(c1-c1cnc(N3CCCC3)nc1)COCC2` | 1.888% |
| `CCn1nc2c(cc1=O)CN(Cc1nc(-c3ccccn3)no1)CC2` | 28.64% |
| `CC(C)NC(=O)c1ccc2c(c1)nc1n2CCN(Cc2ccccc2)C1` | -9.129% |
| `CN1CC2(CCCN(Cc3nnc(-c4cccc(F)c4)o3)C2)OC1=O` (centres unmarked) | -12.36% |
| `CC(NC(=O)NCCOc1ccc(F)c(F)c1)c1nncn1C` (centres unmarked) | -34.82% |
| `O=C(O)C(F)(F)F.O=C1COC2(CCN(Cc3ccc(F)cc3)CC2)CN1` | 12.59% |
| `CCCc1nnc(N2CCN(c3ccccc3Cl)CC2)o1` | 11.88% |
| `CCc1nc(CN2CCN(C(C)c3nc(C4CC4)no3)CC2)no1` (centres unmarked) | -15.38% |
| `CN(C)S(=O)(=O)c1ccc2c(c1)N(Cc1ccccn1)CCC2` | -13.24% |
| `CC(C)c1cc(C(=O)N2CCCC(c3cc(=O)nc4n3CCC4)C2)no1` (centres unmarked) | -4.924% |
| `O=C(O)C(F)(F)F.[H][C@@]12CCN(Cc3cc(C)on3)C[C@]1(C(=O)NCc1ccco1)CCO2` | -4.476% |
| `O=C(Cn1cccnc1=O)NCc1cccnc1OCC(F)(F)F` | 10.37% |
| `O=C(O)CCCC(=O)N1CCC(c2noc3cc(F)ccc23)CC1` | 20.09% |
| `CC(C)Nc1ncnc2c1CCN(C(=O)c1ccccc1F)CC2.O=C(O)C(F)(F)F` | -14.55% |
| `CC(C)CNC(=O)CCN1C(=O)CCc2cc(F)ccc21` | 1.664% |
| `CCCc1nnc(N2CCN(c3ccccc3OCC)CC2)o1` | 7.066% |
| `Cn1cc(C2COC3(CCN(C(=O)Cc4ccccc4)CC3)C2)cn1` (centres unmarked) | 32.13% |
| `CC(C)NC(=O)c1nnn(-c2ccccc2)c1C1CC1` | 12.7% |
| `Cc1cc(NC(=O)CCn2nc(C)c3ccccc32)n(C(C)C)n1` | 5.606% |
| `O=C(NCc1nnc2n1CCCCC2)N1CCc2ccccc2C1` | -0.684% |
| `CSCCc1c(-c2ccccc2)ncn1CC(C)(C)N1CCOCC1` | -1.925% |
| `O=C(O)c1cccc(CN2CCCC(Cc3ccn[nH]3)C2)c1` (centres unmarked) | -7.032% |
| `CNc1cc(N2CCCC2CNCc2c[nH]nc2C(C)(C)C)ncn1` (centres unmarked) | -8.297% |
| `CC(c1nc(C2CC2)no1)N1CCC(NS(=O)(=O)c2cccs2)CC1` (centres unmarked) | -18.42% |
| `Cn1ncc2c(=O)[nH]c(CN3CCc4ccccc4C3)nc21` | -8.665% |
| `CNC(=O)CCc1cc(C2CCCN2S(C)(=O)=O)nc(C)n1` (centres unmarked) | -5.328% |
| `Cc1cccc(C)c1Nc1noc2c1CN(C(=O)c1cn(C)cn1)CC2` | 9.689% |
| `CC(C)OCCC(=O)Nc1ncn(CC(=O)N2CCCCCC2)n1` | 21.46% |
| `CCc1ccc(CN2CCC3(CC2)CNC(=O)CO3)o1.O=C(O)C(F)(F)F` | 6.666% |
| `CC(C)NC(=O)N1CCC2(CC1)CCn1c(C3CC3)cnc12` | -5.984% |
| `COCC(=O)NC(c1ccccc1)c1ccc2c(c1)CCCO2` (centres unmarked) | -15.13% |
| `CC(C)n1cc(S(=O)(=O)N2CCCCCC2)cn1` | -22.07% |
| `CCNc1cc2c(nn1)CCN(C(=O)c1cc3ccccc3o1)C2` | -2.127% |
| `COC(=O)c1ccc(C(=O)N2CCc3c(ncn3C3CC3)C2)cc1` | 18.41% |
| `Cc1ccc(Cl)c2c1C1(NC(=O)c3cccnc3N1)C(=O)N2` (centres unmarked) | -18.63% |
| `Cc1cc(NC(=O)NCc2ccc(C)s2)no1` | 9.973% |
| `OC1(CN2CCCC2)COCCN(c2nnc(-c3ccccc3)s2)C1` (centres unmarked) | -11.52% |
| `Cc1cccc(C(C(=O)NCc2nc(-c3cccnc3)no2)N(C)C)c1` (centres unmarked) | -25.57% |
| `Cc1cc(C(F)(F)F)nc(CCNC(C)Cn2nc(C)cc2C)n1` (centres unmarked) | 1.181% |
| `COc1c(CNCc2cccc(Cn3ccnc3C)c2)c(C)nn1C.Cl` | -11.71% |
| `Cn1cnc2c1CCN(Cc1cccc(C(N)=O)c1)C2` | 24.35% |
| `O=C(CCc1c(F)cccc1F)N1CCCCC1Cn1cccn1` (centres unmarked) | -0.8919% |
| `Cc1noc(C(C)N2CCN(CCC(=O)N3CCOCC3)CC2)n1` (centres unmarked) | 19.39% |
| `Cc1ncc(C(=O)NCCNc2ncccc2C#N)s1` | -9.296% |
| `O=C(O)C(F)(F)F.[H][C@@]12C[C@@H](c3nc(C4CC4)cs3)O[C@]1([H])CN(C(=O)c1ccnnc1)C2` | -4.969% |
| `Cn1ccnc1CN1C[C@@H](CN2CCCCC2)[C@@H](CO)C1` | -7.069% |

Repeated from the top, 4 entries:

* CCS(=O)(=O)N1CCc2ccc(NC(=O)NCCc3ccccc3)cc21 | 20.21%
* [H][C@@]12CCN(c3ccc(C)nn3)C[C@]1([H])[C@H](C(=O)NCCOC)CCO2 | 2.723%
* CCOc1cc(C(=O)N2CCCC(c3noc(C)n3)C2)ccc1OC (centres unmarked) | 5.454%
* CC(C)(CN1CCC(Cc2cccc(C(=O)O)c2)C1)N1CCOCC1 (centres unmarked) | -27.34%

The values are deposited in ChEMBL (CHEMBL3988442, “University of Dundee, Small-Polar-MMV Screening Library” (2021)).